Reference: publication PMC5400601
These are yes or no findings as the source states them, for the method shown. In cells and extracts the contact can be indirect. Some entries that bind do so weakly or less than the wild type. Values belong to the substance of their own block, whether it stands above or below them.

Chains of the proteins cited; added tags and fusions are not shown.
UniProt Q92466: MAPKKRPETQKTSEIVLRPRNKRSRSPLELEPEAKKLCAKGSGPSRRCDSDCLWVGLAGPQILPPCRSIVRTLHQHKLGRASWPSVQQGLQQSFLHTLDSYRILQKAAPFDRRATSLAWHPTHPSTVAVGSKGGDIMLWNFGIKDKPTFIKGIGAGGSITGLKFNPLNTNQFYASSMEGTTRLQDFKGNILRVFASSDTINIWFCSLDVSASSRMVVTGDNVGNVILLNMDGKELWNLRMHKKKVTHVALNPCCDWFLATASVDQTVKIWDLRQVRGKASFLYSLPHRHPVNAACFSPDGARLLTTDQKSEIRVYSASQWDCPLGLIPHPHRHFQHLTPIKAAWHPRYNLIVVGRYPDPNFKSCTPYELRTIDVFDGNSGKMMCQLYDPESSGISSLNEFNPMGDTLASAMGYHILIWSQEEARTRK
UniProt P10275: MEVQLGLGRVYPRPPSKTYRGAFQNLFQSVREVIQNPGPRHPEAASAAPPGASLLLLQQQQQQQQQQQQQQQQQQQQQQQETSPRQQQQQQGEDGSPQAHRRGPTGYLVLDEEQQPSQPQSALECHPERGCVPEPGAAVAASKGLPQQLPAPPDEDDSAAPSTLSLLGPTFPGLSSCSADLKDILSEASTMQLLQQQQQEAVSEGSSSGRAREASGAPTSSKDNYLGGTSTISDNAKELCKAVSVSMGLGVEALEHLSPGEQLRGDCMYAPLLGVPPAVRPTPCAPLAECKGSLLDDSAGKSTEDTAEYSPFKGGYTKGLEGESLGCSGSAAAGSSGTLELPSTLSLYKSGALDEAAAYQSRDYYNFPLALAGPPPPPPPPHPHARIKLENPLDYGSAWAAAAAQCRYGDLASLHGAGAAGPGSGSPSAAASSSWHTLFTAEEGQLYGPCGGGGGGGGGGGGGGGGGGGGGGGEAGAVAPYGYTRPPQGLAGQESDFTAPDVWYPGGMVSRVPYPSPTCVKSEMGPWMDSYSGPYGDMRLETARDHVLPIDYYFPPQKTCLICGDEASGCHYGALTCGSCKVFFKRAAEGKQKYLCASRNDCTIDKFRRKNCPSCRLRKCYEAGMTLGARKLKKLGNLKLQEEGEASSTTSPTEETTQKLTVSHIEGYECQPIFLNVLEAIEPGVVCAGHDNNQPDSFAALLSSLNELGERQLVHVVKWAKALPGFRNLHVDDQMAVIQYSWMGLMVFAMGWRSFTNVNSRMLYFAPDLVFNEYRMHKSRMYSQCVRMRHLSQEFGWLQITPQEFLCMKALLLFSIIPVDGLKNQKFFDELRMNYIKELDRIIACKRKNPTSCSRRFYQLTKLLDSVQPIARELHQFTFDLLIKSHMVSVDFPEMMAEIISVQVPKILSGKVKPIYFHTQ

Legend:
GST-DDB2 [1] = target: GST-DDB2 (UniProt Q92466); assay: pull-down; in vitro competition: GST-DDB2 produced from bacteria incubated with AR protein and various amounts of NRIP, GST pull-down
GST-DDB2 [2] = target: GST-DDB2 (UniProt Q92466); assay: pull-down; HA-AR-FL and HA-AR mutants incubated with GST-DDB2, GST pull-down, western blotting
HA-AR-FL = HA-AR-FL (UniProt P10275); assay: co-IP; competition: 293T cells (legend; text: LNCaP) cotransfected with AR or HA-AR, Myc-DDB2 and FLAG-NRIP (increasing amounts) or FLAG-NRIP-DM; immunoprecipitation with anti-AR antibodies 48 h after transfection, western blotting
AR = AR (UniProt P10275); assay: as above

- binding (GST-DDB2 [1]): binds
Substance: AR protein (from UniProt P10275 1-920) (receptor)

- binding (GST-DDB2 [2]): binds
Substance: HA-AR-FL (from UniProt P10275 1-920) (receptor)

- binding (HA-AR-FL): binds
- binding (AR): binds
Substance: Myc-tagged DDB2 (from UniProt Q92466 1-427)
